The experiment is described as follows: qHTS Assay for Modulators of Lamin A Splicing. The settings on record: HeLa LMNA splicing GFP/RFP minigene ratio, 48 h. A digest of the protocol:
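Read-out is the ratio of GFP to DsRed2 object intensity, acquired by 488 nm laser-scanning cytometry on HeLa lamin A-EGFP minigene reporter cells. Compound incubation 48 hrs at 37 °C in Opti-MEM with 2% FBS; DMSO 0.5% final.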
(Quantitative high-throughput screening tests each substance at several concentrations.)

The mark [1] stands for this setting: measured here: RFP viability control channel.
Setting [2] is: measured here: GFP splicing reporter channel.

The AC50 is the concentration at which the activity in the assay is half-maximal.

Some of the results follow. The main result of the screen is listed elsewhere. These columns were measured beside it and carry no call. Most of these compounds were active or inconclusive in the main read-out, so they are no random draw. The note in brackets gives the kind of curve behind each potency; many fits are weak.

Regarding `CCOc1cc(/C=C/c2ccc3cccc([N+](=O)[O-])c3n2)cc(Cl)c1O`, under setting [1], the AC50 is 2 µM [rising, full curve].
With `O=C(Nc1ccccc1C(=O)OCc1nnc(-c2ccccc2)o1)c1ccco1`, the AC50 was 11.2 µM [rising, partial curve, poor fit] under setting [2] and 17.8 µM [rising, partial curve, poor fit] under setting [1].
Regarding `CCCCCCC(=O)NC(Nc1ccc(S(N)(=O)=O)cc1)C(Cl)(Cl)Cl` (stereo unspecified), the AC50 runs as follows: under setting [2], 11.2 µM [rising, partial curve]; under setting [1], 22.4 µM [rising, single point].
Consider `O=C(NCc1ccco1)/C(=C\c1cccs1)NC(=O)c1ccccc1`, for which the AC50 is, setting by setting: under setting [2], 0.282 µM [falling, full curve, poor fit]; under setting [1], 0.158 µM [falling, full curve, poor fit].
As to `O=C(Nc1ccccc1)OCc1ccccn1`, the AC50 under setting [2] was 0.562 µM [falling, full curve, poor fit] and the AC50 under setting [1] was 0.0562 µM [falling, full curve, poor fit].
For the molecule `Cc1cccc(C)c1NC(=O)CN1C(=O)S/C(=C\c2cccn2C)C1=O`, the concentration at half-maximal activity (AC50) under setting [1] was 2.82 µM [falling, full curve, poor fit].
Regarding `CSc1ccccc1NC(=O)Cn1ccsc1=N`, the concentration at half-maximal activity (AC50) under setting [2] is 2.51 µM [falling, single point].
With `Cc1cc(C)n(-c2nnc3n2N=C(c2c[nH]c4ccccc24)CS3)n1`, the AC50 was 3.55 µM [rising, single point] under setting [2] and 4.47 µM [rising, partial curve] under setting [1].
As for `COc1ccc(OC)c(-c2cc(C(=O)Nc3cc(C)n(Cc4ccc(Cl)cc4)n3)no2)c1`, the AC50 reads like this: under setting [2], 4.47 µM [rising, partial curve]; under setting [1], 3.16 µM [rising, single point].
For `CN(C)CCOC(C)(c1ccccc1)c1ccccn1` (stereo unspecified), the AC50 under setting [2] is 5.62 µM [rising, single point].
On to `CCOc1ccc(/C=N/NC(=O)Cc2csc(Nc3cccc(C(F)(F)F)c3)n2)c(OCC)c1`, for which the AC50 by setting is: under setting [2], 35.5 µM [falling, single point]; under setting [1], 35.5 µM [falling, single point].
`C=CCNC(N)=S`: the AC50 under setting [2] was 0.0282 µM [rising, partial curve, poor fit].
Consider `COC(=O)C1CCN(CC(=O)Nc2sc3c(c2C#N)CCC3)CC1`, for which the AC50 under setting [2] is 28.2 µM [falling, single point] and the AC50 under setting [1] is 31.6 µM [falling, partial curve].
As for `CCCOc1cccc(-c2cc(C(=O)NNC(=S)NCC)c3ccccc3n2)c1`, the half-maximal activity concentration (AC50) was 17.8 µM [rising, single point] under setting [2] and 22.4 µM [rising, single point] under setting [1].
For the molecule `Cc1ccc(CN(CC2CCCO2)C(=O)CN2C(=O)C(C(C)C)Oc3ccccc32)o1` (stereo unspecified), the AC50 under setting [1] is 15.8 µM [rising, single point].
On to `CCOC(=O)N1CCN(C(=O)c2oc3ccc(S(=O)(=O)N4CCCCCC4)cc3c2C)CC1`, for which the AC50 under setting [1] is 14.1 µM [rising, single point].
As for `COc1ccc(CN(C)Cc2nc3scc(-c4ccccc4)c3c(=O)[nH]2)cc1OC`, the AC50 under setting [1] was 17.8 µM [rising, single point].
On to `Cc1[nH]c2ccccc2c1/C=N/Nc1nncn1N`, for which, under setting [2], the AC50 is 0.00447 µM [rising, full curve, poor fit].
Take `Cc1ccccc1NC(=S)NC1(C)CCS(=O)(=O)C1` (stereo unspecified): the AC50 under setting [1] is 6.31 µM [rising, partial curve, poor fit].
Regarding `CCCCCCCCCCCCCCC[C@H](O)[C@H](N)CO`, the AC50 reads like this: under setting [2], 22.4 µM [falling, partial curve, poor fit]; under setting [1], 12.6 µM [falling, partial curve].
In the case of `CCC1=NN(C(=O)C(=O)Nc2ccccc2OC)C(O)(C(F)(F)F)C1` (stereo unspecified), the AC50 reads like this: under setting [2], 10 µM [falling, single point]; under setting [1], 0.0355 µM [falling, single point].
With `CCC(=O)Nc1nc(-c2ccc3c(c2)OCCO3)cs1`, the AC50 under setting [1] is 20 µM [rising, single point].
On to `Cc1ccc(C)c(NC(=O)c2ccccc2NC(=O)C2CCCO2)c1` (stereo unspecified), for which the AC50 under setting [1] is 0.01 µM [rising, full curve, poor fit].
Consider `CC(NC(=O)c1ccc(CS(=O)(=O)Cc2ccccc2F)o1)c1ccc2c(c1)OCCO2` (stereo unspecified), for which the AC50 under setting [1] was 35.5 µM [rising, single point].
Turning to `Fc1ccc(NC(=S)Nc2cccnc2)cc1Cl`, the AC50 reads like this: under setting [2], 0.0251 µM [falling, full curve, poor fit]; under setting [1], 0.0224 µM [falling, full curve].
On to `COc1ccc(NC(=O)CSc2c3c(nc4ccccc24)CCCC3)c(OC)c1`, for which the concentration at half-maximal activity (AC50) is, setting by setting: under setting [2], 12.6 µM [falling, single point]; under setting [1], 15.8 µM [falling, single point].
For `COc1ccc(-c2cc(=O)c3cc(OC)ccc3o2)cc1`, the AC50 is 2.82 µM [rising, full curve, poor fit] under setting [2] and 2.82 µM [rising, full curve] under setting [1].
With `CCOC1CC(C)(C)NC(=S)N1` (stereo unspecified), the AC50 under setting [2] was 14.1 µM [rising, single point].
Take `Cc1c(NS(=O)(=O)c2ccc(NCC3CCCO3)c([N+](=O)[O-])c2)c(=O)n(-c2ccccc2)n1C` (stereo unspecified): the AC50 under setting [1] is 0.0316 µM [falling, full curve, poor fit].
For `O=C(O)c1ccccc1C(=O)NNc1ccc(Cl)cc1Cl`, the AC50 under setting [1] is 44.7 µM [rising, single point].
On to `COc1cc(OC)c(OC)cc1CN1CCN(c2ccccc2OC)CC1`, for which the AC50 under setting [1] is 35.5 µM [rising, single point].
As for `Cc1cccc(OCCCN2C(=O)C(=O)c3cc(C)ccc32)c1`, the AC50 was 17.8 µM [falling, single point] under setting [2] and 15.8 µM [falling, single point] under setting [1].
Turning to `Cc1ccc(S(=O)(=O)NCC2CCC(C(=O)NCc3cccnc3)CC2)cc1` (stereo unspecified), the AC50 under setting [2] is 0.01 µM [falling, full curve, poor fit].
For `c1ccc2c(c1)oc1c(NCc3ccc4c(c3)OCO4)ncnc12`, under setting [1], the AC50 was 22.4 µM [rising, single point].
As to `CC(CNC(=O)C1CCN(Cc2cc3ccccc3n2Cc2ccccc2)CC1)c1ccccc1` (stereo unspecified), the AC50 runs as follows: under setting [2], 3.98 µM [falling, partial curve]; under setting [1], 0.794 µM [falling, partial curve, poor fit].
